# Data published in the supplement of paper PMC11732987, “Enantioselective OTUD7B fragment discovery through chemoproteomics screening and high-throughput optimisation” (Communications Chemistry, 2025).
# Chains of the proteins cited; added tags and fusions are not shown. Lines headed by an entry give the natural chain unless they say otherwise; changes in a name come on top. Residues count along the entry.
# UniProt Q70CQ2: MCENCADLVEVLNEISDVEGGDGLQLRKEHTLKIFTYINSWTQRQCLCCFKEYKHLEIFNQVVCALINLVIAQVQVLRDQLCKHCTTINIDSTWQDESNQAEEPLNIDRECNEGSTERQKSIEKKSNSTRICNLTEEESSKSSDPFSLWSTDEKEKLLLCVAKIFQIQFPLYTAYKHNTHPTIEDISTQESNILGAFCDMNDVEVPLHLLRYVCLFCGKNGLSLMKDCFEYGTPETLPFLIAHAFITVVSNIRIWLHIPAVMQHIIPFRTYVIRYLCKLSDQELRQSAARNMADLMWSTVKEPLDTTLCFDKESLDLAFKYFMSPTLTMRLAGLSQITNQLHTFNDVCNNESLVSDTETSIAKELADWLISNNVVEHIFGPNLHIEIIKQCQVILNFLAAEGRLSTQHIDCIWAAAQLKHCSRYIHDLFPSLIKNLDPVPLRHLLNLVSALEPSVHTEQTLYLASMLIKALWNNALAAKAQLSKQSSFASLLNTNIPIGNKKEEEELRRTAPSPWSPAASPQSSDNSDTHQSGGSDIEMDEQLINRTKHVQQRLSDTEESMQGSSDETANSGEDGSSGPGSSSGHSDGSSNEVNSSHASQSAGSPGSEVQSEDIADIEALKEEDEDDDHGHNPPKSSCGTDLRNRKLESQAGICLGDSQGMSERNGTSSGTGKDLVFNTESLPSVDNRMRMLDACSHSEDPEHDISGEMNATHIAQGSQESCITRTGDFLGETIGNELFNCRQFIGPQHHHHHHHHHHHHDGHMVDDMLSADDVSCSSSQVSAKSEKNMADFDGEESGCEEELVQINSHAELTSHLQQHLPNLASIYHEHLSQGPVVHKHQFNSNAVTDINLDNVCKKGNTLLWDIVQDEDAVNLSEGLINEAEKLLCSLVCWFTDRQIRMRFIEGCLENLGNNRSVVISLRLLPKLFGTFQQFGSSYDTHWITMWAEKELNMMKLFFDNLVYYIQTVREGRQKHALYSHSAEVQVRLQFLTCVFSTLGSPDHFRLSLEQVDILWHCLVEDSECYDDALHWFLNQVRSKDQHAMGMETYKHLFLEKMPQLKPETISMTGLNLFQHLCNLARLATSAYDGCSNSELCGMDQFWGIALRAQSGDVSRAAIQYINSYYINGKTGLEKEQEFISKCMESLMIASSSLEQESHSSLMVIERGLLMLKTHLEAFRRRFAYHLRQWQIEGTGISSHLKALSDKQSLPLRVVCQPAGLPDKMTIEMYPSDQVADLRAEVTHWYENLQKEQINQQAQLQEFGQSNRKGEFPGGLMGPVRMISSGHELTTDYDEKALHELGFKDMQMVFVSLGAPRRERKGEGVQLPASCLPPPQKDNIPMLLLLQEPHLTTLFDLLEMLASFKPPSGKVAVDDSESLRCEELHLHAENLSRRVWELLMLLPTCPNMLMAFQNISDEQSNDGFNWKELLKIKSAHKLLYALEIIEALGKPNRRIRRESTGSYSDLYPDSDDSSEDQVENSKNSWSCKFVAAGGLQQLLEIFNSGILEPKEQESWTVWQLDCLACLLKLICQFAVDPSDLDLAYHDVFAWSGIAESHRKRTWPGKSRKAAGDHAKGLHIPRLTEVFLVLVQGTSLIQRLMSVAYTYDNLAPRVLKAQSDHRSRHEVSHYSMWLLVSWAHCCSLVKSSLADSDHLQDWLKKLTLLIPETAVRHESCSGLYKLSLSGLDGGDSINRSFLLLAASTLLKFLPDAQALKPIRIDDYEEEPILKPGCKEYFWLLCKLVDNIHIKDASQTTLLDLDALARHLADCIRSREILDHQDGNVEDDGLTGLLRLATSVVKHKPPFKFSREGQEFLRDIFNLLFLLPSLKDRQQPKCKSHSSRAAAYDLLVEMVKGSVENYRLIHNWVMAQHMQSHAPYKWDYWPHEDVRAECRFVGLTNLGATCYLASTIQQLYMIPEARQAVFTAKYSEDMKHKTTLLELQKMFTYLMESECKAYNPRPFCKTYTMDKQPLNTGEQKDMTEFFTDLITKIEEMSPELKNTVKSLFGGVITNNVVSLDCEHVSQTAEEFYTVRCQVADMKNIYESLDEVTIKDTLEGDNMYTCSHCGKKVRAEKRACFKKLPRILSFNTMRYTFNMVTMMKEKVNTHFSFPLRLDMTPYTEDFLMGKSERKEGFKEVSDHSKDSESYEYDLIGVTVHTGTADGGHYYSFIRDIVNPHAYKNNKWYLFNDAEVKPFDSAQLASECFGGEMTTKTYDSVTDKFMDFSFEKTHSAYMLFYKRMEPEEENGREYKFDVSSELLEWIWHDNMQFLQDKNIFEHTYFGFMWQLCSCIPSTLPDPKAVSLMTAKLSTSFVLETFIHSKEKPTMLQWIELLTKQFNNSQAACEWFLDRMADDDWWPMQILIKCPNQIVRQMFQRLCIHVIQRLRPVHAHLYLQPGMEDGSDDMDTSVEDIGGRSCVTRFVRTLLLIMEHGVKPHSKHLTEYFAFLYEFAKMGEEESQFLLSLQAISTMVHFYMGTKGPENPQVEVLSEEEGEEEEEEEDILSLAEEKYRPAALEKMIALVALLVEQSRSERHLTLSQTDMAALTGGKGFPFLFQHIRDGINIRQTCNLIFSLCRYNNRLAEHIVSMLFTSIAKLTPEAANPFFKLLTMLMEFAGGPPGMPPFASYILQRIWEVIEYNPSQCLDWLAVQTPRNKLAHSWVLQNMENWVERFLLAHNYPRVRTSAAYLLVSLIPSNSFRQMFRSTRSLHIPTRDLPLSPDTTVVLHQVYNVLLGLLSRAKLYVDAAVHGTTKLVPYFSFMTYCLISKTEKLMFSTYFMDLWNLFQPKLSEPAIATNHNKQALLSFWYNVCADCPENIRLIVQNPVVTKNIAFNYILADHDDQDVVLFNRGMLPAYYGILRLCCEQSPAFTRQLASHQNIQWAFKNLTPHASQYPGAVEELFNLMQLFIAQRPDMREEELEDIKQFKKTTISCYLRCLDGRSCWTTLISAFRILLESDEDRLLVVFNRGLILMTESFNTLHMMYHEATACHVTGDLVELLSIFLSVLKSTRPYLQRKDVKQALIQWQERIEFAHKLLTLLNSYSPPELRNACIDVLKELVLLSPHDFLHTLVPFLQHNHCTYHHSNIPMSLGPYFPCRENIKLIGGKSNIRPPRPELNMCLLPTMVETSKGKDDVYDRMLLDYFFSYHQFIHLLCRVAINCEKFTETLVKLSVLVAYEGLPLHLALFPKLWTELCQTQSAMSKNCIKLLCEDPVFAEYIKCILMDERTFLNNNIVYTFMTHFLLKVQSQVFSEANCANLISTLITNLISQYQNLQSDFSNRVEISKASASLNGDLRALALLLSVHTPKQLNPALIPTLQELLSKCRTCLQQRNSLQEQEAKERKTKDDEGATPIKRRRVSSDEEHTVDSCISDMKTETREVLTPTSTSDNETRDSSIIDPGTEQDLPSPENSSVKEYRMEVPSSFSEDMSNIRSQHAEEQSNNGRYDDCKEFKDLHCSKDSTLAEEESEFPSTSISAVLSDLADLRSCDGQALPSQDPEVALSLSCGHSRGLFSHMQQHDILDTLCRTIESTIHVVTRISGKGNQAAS
# UniProt O75691, 1754-1774: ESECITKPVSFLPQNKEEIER
# UniProt Q8NBZ7: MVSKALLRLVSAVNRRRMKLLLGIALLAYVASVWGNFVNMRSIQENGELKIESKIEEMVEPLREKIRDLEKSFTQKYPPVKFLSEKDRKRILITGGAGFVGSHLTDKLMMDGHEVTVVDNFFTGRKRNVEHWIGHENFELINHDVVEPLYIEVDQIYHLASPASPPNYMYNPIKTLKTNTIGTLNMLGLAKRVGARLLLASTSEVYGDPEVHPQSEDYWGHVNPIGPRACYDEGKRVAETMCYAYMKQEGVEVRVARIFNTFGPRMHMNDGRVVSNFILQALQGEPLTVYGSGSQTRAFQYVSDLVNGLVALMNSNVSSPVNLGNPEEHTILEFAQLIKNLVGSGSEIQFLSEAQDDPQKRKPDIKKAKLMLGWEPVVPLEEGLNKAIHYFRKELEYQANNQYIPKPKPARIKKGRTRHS
# UniProt P22415: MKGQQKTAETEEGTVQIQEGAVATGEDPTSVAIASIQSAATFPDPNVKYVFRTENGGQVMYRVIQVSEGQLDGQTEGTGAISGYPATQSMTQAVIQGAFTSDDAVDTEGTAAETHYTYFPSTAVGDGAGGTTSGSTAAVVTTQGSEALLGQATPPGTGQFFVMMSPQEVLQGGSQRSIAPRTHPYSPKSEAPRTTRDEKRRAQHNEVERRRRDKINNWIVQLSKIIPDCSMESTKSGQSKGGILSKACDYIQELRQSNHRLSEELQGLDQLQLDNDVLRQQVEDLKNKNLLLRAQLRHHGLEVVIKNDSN
# UniProt P40818: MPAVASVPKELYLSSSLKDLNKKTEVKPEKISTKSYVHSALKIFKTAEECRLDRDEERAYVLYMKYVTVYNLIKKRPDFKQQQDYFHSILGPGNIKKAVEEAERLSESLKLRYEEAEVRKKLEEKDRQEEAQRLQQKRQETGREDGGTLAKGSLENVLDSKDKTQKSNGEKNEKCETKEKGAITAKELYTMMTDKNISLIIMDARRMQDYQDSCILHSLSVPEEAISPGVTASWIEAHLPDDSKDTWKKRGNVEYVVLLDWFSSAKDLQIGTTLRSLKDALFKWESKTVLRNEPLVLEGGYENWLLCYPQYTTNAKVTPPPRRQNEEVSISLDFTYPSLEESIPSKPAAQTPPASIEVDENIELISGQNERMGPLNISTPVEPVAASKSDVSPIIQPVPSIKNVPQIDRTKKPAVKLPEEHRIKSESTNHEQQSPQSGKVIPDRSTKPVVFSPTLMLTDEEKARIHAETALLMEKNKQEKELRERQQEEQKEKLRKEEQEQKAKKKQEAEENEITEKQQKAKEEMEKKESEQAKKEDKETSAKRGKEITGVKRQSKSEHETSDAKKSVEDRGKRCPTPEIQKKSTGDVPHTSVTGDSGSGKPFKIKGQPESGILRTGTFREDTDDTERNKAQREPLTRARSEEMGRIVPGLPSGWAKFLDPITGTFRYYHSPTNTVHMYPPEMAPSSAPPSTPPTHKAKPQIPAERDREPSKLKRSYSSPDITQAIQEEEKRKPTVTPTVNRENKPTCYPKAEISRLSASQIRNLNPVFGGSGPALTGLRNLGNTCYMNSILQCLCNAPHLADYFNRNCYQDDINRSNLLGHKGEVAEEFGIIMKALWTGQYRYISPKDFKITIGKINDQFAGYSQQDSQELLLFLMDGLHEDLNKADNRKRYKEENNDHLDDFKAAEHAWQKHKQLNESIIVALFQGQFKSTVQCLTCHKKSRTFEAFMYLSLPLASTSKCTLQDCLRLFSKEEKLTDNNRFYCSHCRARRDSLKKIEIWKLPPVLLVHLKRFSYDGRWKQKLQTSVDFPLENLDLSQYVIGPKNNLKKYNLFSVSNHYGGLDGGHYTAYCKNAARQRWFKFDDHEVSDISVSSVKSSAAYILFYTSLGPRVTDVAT
# UniProt P07919: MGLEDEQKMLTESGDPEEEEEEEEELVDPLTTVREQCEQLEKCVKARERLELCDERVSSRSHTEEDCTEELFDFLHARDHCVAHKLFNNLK
# UniProt Q5THJ4, 1452-1472: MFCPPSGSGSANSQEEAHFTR
# UniProt Q9P253: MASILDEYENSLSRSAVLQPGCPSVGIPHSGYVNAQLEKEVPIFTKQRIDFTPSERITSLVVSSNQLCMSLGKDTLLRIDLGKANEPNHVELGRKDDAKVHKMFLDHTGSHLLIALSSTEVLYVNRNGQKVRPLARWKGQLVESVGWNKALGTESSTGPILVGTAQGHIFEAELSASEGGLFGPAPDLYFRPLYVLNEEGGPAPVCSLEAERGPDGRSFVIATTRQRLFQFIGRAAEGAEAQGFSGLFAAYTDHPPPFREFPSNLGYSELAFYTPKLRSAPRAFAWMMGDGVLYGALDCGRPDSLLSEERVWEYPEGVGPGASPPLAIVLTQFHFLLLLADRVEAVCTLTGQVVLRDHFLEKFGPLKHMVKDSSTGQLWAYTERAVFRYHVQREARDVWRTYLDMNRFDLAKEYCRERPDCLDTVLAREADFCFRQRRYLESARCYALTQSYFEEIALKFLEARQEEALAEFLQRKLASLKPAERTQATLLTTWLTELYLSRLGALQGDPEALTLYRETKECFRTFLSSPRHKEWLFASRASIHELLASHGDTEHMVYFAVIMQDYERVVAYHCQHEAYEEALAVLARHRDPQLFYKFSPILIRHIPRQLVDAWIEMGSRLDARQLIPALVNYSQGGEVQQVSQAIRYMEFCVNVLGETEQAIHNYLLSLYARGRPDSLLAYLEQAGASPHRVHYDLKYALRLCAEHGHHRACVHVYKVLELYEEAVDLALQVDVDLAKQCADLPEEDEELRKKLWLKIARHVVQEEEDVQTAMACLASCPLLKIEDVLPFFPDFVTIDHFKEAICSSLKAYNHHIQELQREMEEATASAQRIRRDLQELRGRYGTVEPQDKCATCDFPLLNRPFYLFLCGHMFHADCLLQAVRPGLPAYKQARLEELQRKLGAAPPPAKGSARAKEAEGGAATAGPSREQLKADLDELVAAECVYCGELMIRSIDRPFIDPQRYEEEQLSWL
# The other results are listed elsewhere or left out. The data scatter; read single values as rough.
# Compound: ClCC(=O)N[C@H]1CCCc2ccccc12
# Assay: log2 mean competition ratio of IA-DTB cysteine labelling (DMSO/compound) (log2 ratio); higher = stronger cysteine engagement by compound
# Conditions: 50 µM; treatment time: 4 h; cell line lysate: HEK293T
# Description: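 IA-DTB competitive cysteine chemoproteomics in HEK293T RIPA lysate. Lysates were treated with compound 29 or 30 at 50 or 200 µM for 4 h, then IA-DTB (500 µM, 1 h), trypsin-digested, NeutrAvidin-enriched and analysed by diaPASEF. Competition ratio = intensity DMSO / intensity compound (n=4 treated, n=64 DMSO); binding: mean log2 CR ≥ 1 and p ≤ 0.05 plus QC filters. Target is the cysteine site.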
row,Target,log2 mean competition ratio
1,UNC45A C488 (UniProt Q9H3U1),-0.185
2,VPS11 C709 (UniProt Q9H270),-0.164
3,USP34 C856 (UniProt Q70CQ2),0.287
4,UTP20 C1384 (UniProt O75691),-0.506
5,USP28 C1058 (UniProt Q96RU2),0.445
6,UTP20 C1757 (UniProt O75691),-0.107
7,UXS1 C230 (UniProt Q8NBZ7),0.0508
8,VAC14 C114 (UniProt Q08AM6),0.154
9,USP34 C1330 (UniProt Q70CQ2),-0.209
10,UPF2 C990 (UniProt Q9HAU5),-0.572
11,VARS1 C917,-0.24
12,USF1 C229 (UniProt P22415),-0.375
13,VDAC2 C76,0.0597
14,USP48 C850 (UniProt Q86UV5),-0.0854
15,VEZT C412,-0.205
16,UTP20 C1794 (UniProt O75691),0.129

row,Target,log2 mean competition ratio
1,USP24 C1287 (UniProt Q9UPU5),0.0954
2,USP8 C748 (UniProt P40818),0.301
3,USP34 C1215 (UniProt Q70CQ2),-0.0363
4,USF1 C248 (UniProt P22415),0.591
5,USP34 C1731 (UniProt Q70CQ2),-0.178
6,UTP20 C1644 (UniProt O75691),-0.058
7,UQCRH C67 (UniProt P07919),0.715
8,VPS13D C1454 (UniProt Q5THJ4),-0.201
9,VHL C77 (UniProt P40337),0.351
10,UBR5 C1291 (UniProt O95071),-0.16
11,USP8 C809 (UniProt P40818),-0.179
12,VPS18 C741 (UniProt Q9P253),-0.884
13,UBR5 C2267 (UniProt O95071),0.496
14,USP32 C786 (UniProt Q8NFA0),-0.174
15,UGGT1 C1493 (UniProt Q9NYU2),-0.171
16,UTRN C862 (UniProt P46939),0.739

# Same assay, conditions: 200 µM; treatment time: 4 h; cell line lysate: HEK293T
row,Target,log2 mean competition ratio
1,UNC45A C488 (UniProt Q9H3U1),0.173
2,VPS11 C709 (UniProt Q9H270),-0.114
3,USP34 C856 (UniProt Q70CQ2),0.0685
4,UTP20 C1384 (UniProt O75691),-0.702
5,USP28 C1058 (UniProt Q96RU2),0.155
6,UBR5 C739 (UniProt O95071),-0.689
7,UTP20 C1757 (UniProt O75691),-0.0892
8,UXS1 C230 (UniProt Q8NBZ7),0.046
9,UTY C76,-0.312
10,VAC14 C114 (UniProt Q08AM6),0.0916
11,USP34 C1330 (UniProt Q70CQ2),-0.408
12,UPF2 C990 (UniProt Q9HAU5),-0.0667
13,VARS1 C917,0.0371
14,USF1 C229 (UniProt P22415),0.0114
15,VDAC2 C76,-0.316
16,USP48 C850 (UniProt Q86UV5),-0.0674
17,VEZT C412,0.0741
18,UTP20 C1794 (UniProt O75691),-0.239
19,USP24 C1287 (UniProt Q9UPU5),0.269

row,Target,log2 mean competition ratio
1,VPS18 C806 (UniProt Q9P253),-0.0808
2,USP8 C748 (UniProt P40818),0.501
3,USP34 C1215 (UniProt Q70CQ2),-0.121
4,URGCP C49 (UniProt Q8TCY9),0.198
5,USF1 C248 (UniProt P22415),0.163
6,USP34 C1731 (UniProt Q70CQ2),0.11
7,UTP20 C1644 (UniProt O75691),-0.452
8,UQCRH C67 (UniProt P07919),0.492
9,VPS13D C1454 (UniProt Q5THJ4),-0.12
10,VHL C77 (UniProt P40337),-0.12
11,USP35 C213,0.296
12,UBR5 C1291 (UniProt O95071),-0.496
13,USP8 C809 (UniProt P40818),0.146
14,VPS18 C741 (UniProt Q9P253),0.257
15,UBR5 C2267 (UniProt O95071),-0.141
16,USP32 C786 (UniProt Q8NFA0),0.151
17,UGGT1 C1493 (UniProt Q9NYU2),0.419
18,UTRN C862 (UniProt P46939),-0.00712
